The values below come from paper PMC5662243.

Chains of the proteins cited; added tags and fusions are not shown.
UniProt Q92993: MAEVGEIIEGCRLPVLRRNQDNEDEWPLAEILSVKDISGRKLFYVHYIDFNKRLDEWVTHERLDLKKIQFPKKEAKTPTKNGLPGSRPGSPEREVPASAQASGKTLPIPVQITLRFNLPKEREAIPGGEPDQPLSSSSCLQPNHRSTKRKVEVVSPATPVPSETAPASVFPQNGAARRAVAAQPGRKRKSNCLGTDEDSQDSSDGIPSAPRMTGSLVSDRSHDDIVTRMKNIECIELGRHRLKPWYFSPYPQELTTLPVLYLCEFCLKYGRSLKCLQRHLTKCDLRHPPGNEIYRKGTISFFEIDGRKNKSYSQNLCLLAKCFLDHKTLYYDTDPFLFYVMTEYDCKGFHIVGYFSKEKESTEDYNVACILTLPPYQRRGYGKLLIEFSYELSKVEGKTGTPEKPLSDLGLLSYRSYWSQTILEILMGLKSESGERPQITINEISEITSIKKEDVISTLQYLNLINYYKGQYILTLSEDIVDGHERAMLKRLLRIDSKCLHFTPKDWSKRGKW
UniProt P08047: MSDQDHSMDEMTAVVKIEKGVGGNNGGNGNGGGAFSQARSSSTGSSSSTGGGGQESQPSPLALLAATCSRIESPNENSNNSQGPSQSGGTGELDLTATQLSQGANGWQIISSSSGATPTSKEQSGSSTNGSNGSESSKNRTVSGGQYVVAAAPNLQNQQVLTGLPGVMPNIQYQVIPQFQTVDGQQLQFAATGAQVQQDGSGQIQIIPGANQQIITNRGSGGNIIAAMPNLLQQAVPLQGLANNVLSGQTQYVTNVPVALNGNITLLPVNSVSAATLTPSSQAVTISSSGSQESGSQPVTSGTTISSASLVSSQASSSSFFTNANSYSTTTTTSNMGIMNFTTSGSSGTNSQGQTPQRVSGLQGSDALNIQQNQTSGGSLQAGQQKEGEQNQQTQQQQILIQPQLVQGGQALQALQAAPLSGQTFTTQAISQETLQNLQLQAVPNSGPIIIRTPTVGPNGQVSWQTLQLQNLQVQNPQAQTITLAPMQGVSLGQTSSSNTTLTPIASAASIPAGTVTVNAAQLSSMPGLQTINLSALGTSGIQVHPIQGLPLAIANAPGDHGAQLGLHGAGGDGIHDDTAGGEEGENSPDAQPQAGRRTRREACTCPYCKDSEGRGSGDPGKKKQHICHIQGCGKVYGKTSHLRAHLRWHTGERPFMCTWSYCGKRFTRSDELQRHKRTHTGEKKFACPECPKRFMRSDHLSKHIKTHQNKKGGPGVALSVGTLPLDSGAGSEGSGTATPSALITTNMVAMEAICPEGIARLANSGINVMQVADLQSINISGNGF

This assay has as its target HIV-1 TAT Interactive protein (TIP60) (human (endogenous in HeLa)) (UniProt Q92993). Nature of the assay: co-IP; HeLa cell lysate immunoprecipitated overnight with the endogenous TIP60 antibody; interacting Sp1 detected by western blotting; done in the absence and in the presence of DNAse.

These are yes or no findings as the source states them, for the method shown. Binding seen in cells or lysates may run through a third protein. Some results given as binding are weak or reduced against the parent protein; the word gives no strength.

As for “Specificity Protein 1 (Sp1) (from UniProt P08047 1-785)”, the binding entry is given as “binds”.
